Test results: PubChem BioAssay AID493014 (National Center for Advancing Translational Sciences (NCATS), 2011)
Hit rate of the full screen: of about 340,000 compounds, about 170 (0.05%) were called active. The inconclusive results got no clear call from the source; some entries with a clear call stand among them for comparison. The call rests on the fitted dose curve; in most records, active means well fitted inhibition curve with a large enough effect in the signal ratio, with a control signal flat (not every such curve was filed as active); inconclusive means small, poorly fitted or top-dose-only effect, or effect the other way, or a change in a side signal; inactive means flat fitted curve, though single readings scatter; the % refers to the signal ratio. Potencies of inconclusive entries are doubtful fits and often do not repeat.

experiment: qHTS Assay to Find Inhibitors of Chronic Active B-Cell Receptor Signaling; details: ABC-DLBCL IkBa-CBG/CBR reporter, luminescence ratio (green luciferase fused to IkBa over red control in TMD8 lymphoma cells), 4 h; activity change, negative = inhibition: at 46.1 µM (top of the series) unless noted;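 on activity change, negative = inhibition: plate controls were basal doxycycline-induced cells for no effect and cells given 10 µM MG132 for full effect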
Summary of the method: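 TMD8 ABC-DLBCL cells carrying doxycycline-inducible green luciferase fused to IkappaBalpha plus unfused red luciferase were exposed to compounds (up to 46 uM) for 4 hrs at 37C. Activity came from the overlap-corrected green/red luminescence ratio.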
Potency means the concentration at half of the fitted maximal effect.

SMILES	activity change, negative = inhibition	Potency
Cc1ccc(C(=O)CSc2ncnc3ccccc23)o1	inconclusive: -8.08%	
COc1ccccc1-n1cnnc1SCc1csc(-c2ccccc2)n1	inconclusive: -25.6%	
COC(=O)C1=CO[C@@H](O[C@@H]2O[C@H](CO)[C@@H](O)[C@H](O)[C@H]2O)C2C1C=C[C@@]2(O)CO (stereo partly drawn)	inactive	
Cc1cc2ccccc2n1CCNC(=O)C1CCCC1	inactive	
Cc1ccc(NC(=S)C2=C(O)c3sccc3N(C)S2(=O)=O)cc1		inconclusive: 16.4 µM [falling, partial curve]
O=C(O)c1cccc(C(=O)Cc2ccccc2)c1	inconclusive: -6.23%	
C/C(=N\NC(=O)c1cc(C(C)(C)C)[nH]n1)C12CC3CC(CC(C3)C1)C2	inconclusive: 1.18%	
COCCNC(=O)c1onc(CSc2cccc(Cl)c2)c1C(=O)O		inconclusive: 15.8 µM [falling, single point]
CC(=O)Nc1ccc(NC(=O)/C=C/c2ccc(Cl)cc2)cc1	inconclusive: 37.5%	
COc1c(C)cc(Br)cc1C(=O)Nc1ccc(N2CCN(S(C)(=O)=O)CC2)cc1	inactive	
O=C(CC1OC(=O)c2ccccc21)Nc1ccccc1N1CCOCC1 (stereo not drawn)	inactive	
O=C(NCc1ccc(F)cc1)C(=O)NCC1CCCN1S(=O)(=O)c1ccccc1 (stereo not drawn)		inconclusive: 3.26 µM [falling, partial curve, poor fit]
COc1cc(OC)cc(C(=O)NC(=S)Nc2nnn(C)n2)c1	inconclusive: -13.2%	
Cc1nn(-c2ccccc2)c(N2CCCC2)c1/C=N/NC(=O)c1cc(-c2cccnc2)nc2ccccc12	inactive	
COc1ccc(C/C(N)=N/OC(=O)c2ccc(Cl)cc2)cc1	inconclusive: 10.6%	
NC(=O)c1ccccc1NC(=O)/C=C/c1cccc(Cl)c1		inconclusive: 25.1 µM [falling, single point]
O=C(CSc1nnc(-c2n[nH]c3ccccc23)n1-c1ccccc1)Nc1ccccc1Cl	inconclusive: 0.945%	
Cc1c2cnn(CC(=O)Nc3c(F)c(F)cc(F)c3F)c(=O)c2c(C)n1Cc1ccccc1F	inconclusive: 9.76%	
CCN1CCN(C(=S)Nc2cccc(Cl)c2)CC1	inactive	
COc1ccc(-c2nc(CSCC(=O)NCc3ccc4c(c3)OCO4)c(C)o2)cc1	inactive	
O=Cc1ccccc1OCCN1CCCC1=O	inconclusive: -48.8%	
Cc1cc(C)n(-c2nnc(C)n2/N=C/c2cc(Br)ccc2OCc2ccccc2)n1		inconclusive: 35.5 µM [falling, single point]
Cc1cc(/C=C(\C#N)C(=O)O)c(C)n1CC1CCCO1 (stereo not drawn)	inconclusive: 7.82%	

Reformatted: entries from further up.
SMILES | activity change, negative = inhibition | Potency
COc1c(C)cc(Br)cc1C(=O)Nc1ccc(N2CCN(S(C)(=O)=O)CC2)cc1 | inactive | 
COc1cc(OC)cc(C(=O)NC(=S)Nc2nnn(C)n2)c1 | inconclusive: -13.2% | 
